Here are results for one substance from patent US20070060521A1.

Chains of the proteins cited; added tags and fusions are not shown. Residues count along the entry.
UniProt P42224, residues 2-750: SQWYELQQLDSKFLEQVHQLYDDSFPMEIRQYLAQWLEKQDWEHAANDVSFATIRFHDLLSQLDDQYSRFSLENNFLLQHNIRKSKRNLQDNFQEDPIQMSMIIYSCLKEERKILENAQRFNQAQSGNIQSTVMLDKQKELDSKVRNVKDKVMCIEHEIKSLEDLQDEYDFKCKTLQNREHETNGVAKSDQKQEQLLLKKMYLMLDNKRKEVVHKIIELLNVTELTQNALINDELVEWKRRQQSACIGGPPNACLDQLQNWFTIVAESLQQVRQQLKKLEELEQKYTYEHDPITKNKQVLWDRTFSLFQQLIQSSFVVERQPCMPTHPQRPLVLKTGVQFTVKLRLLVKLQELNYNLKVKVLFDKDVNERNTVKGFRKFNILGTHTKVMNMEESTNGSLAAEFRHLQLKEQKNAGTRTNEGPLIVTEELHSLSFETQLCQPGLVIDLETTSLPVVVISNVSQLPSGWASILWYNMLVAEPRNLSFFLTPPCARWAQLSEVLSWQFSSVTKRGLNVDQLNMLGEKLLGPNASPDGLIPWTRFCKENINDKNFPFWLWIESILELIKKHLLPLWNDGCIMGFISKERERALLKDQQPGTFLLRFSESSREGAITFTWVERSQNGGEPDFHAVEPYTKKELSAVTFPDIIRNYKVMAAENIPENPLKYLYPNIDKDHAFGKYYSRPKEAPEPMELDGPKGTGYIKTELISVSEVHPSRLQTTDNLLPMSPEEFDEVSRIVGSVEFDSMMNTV

These are yes or no findings as the source states them, for the method shown. Some entries that bind do so weakly or less than the wild type.

Assay [1] has as its target activated STAT1 in nuclear extracts of human myeloma cells (human) (UniProt P42224). In words: EMSA with antibody supershift, nuclear extracts of U266 cells.
Assay [2] has the same target. As to the kind of experiment: EMSA with antibody supershift, nuclear extracts of patients' bone marrow cells. (In general: A gel shift assay detects complexes by their altered migration in electrophoresis.)

In the case of “activated STAT1 in nuclear extracts of human myeloma cells (from UniProt P42224 2-750)”, the binding result in assay [1] and in assay [2] was “binds” each time.
